PubChem BioAssay AID1259254 – NCATS – 2017

Aim: 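Genome-wide screen for genes that prevent DNA re-replication in cancer cells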 (primary screen)
System: human HCT116 colorectal cancer cells
Reagent: single siRNA against human genes
Timing: 3 days
Read-out: 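Nuclei stained with Hoechst and imaged; cell-cycle phase assigned by DNA content; G2 share scaled per plate, non-targeting siRNA 0%, GMNN siRNA 100%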
Scale: G2 robust z-score and G2 cells, % of GMNN control: higher = more G2 cells, more excess DNA replication
Active means: 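Active siRNAs have a G2 robust z of 5 or more median absolute deviations over the median, which in these data means about 38% or higher of GMNN control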
In all, the deposit lists about 59,000 reagents; shown is a random part of them. About 1,550 of all reagents (2.6%) were called active. 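G2 share is only a proxy for re-replication; each gene was hit by three separate siRNAs, and active genes were retested.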 Reagents against one gene are numbered here. Further read-outs or replicates are left out here. The record does not give: the amount of reagent.

Against TRH #1 the deposit lists G2 robust z-score -0.229; G2 cells, % of GMNN control 1.35; inactive.
Against TRH #2 the deposit lists G2 robust z-score -0.715; G2 cells, % of GMNN control -2.07; inactive.
Silencing of TRH #3 came out at: G2 robust z-score -0.634; G2 cells, % of GMNN control -1.49; inactive.
Depletion of DOK7 #1 resulted in: G2 robust z-score -0.218; G2 cells, % of GMNN control 1.43; inactive.
DOK7 #2 showed G2 robust z-score 1.16; G2 cells, % of GMNN control 11.1; inactive.
DOK7 #3 gave G2 robust z-score 1.13; G2 cells, % of GMNN control 10.9; inactive.
With knock-down of BMP6 #1 the results were G2 robust z-score 0.0602; G2 cells, % of GMNN control 3.39; inactive.
Depletion of BMP6 #2 resulted in: G2 robust z-score 0.621; G2 cells, % of GMNN control 7.34; inactive.
BMP6 #3 scored G2 robust z-score -0.768; G2 cells, % of GMNN control -2.44; inactive.
Depletion of ACMSD #1 came out at: G2 robust z-score -0.824; G2 cells, % of GMNN control -2.83; inactive.
With knock-down of ACMSD #2, the screen gave G2 robust z-score 0.099; G2 cells, % of GMNN control 3.66; inactive.
After knock-down of ACMSD #3, the record shows G2 robust z-score 2.11; G2 cells, % of GMNN control 17.8; inactive.
For POMP #1, the entry reads G2 robust z-score 1.26; G2 cells, % of GMNN control 11.8; inactive.
POMP #2 showed G2 robust z-score 0.423; G2 cells, % of GMNN control 5.95; inactive.
For POMP #3 the deposit lists G2 robust z-score 3.98; G2 cells, % of GMNN control 30.9; inactive.
Depletion of OR1E1 #1 gave: G2 robust z-score 0.516; G2 cells, % of GMNN control 6.6; inactive.
With knock-down of OR1E1 #2, the record shows G2 robust z-score 1.98; G2 cells, % of GMNN control 16.9; inactive.
Silencing of OR1E1 #3 resulted in: G2 robust z-score 5.15; G2 cells, % of GMNN control 39.2; active.
Against RPL7P9 #1 the deposit lists G2 robust z-score 4.28; G2 cells, % of GMNN control 33.1; inactive.
For RPL7P9 #2, the values are G2 robust z-score 1.31; G2 cells, % of GMNN control 12.2; inactive.
For RPL7P9 #3, the values are G2 robust z-score 4.78; G2 cells, % of GMNN control 36.6; inactive.
BIRC3 #1 gave G2 robust z-score -1.22; G2 cells, % of GMNN control -5.61; inactive.
Knock-down of BIRC3 #2 resulted in: G2 robust z-score 0.772; G2 cells, % of GMNN control 8.4; inactive.
With knock-down of BIRC3 #3, the screen gave G2 robust z-score -0.0377; G2 cells, % of GMNN control 2.7; inactive.
FABP3 #1 scored G2 robust z-score 1.38; G2 cells, % of GMNN control 12.6; inactive.
After knock-down of FABP3 #2, the screen gave G2 robust z-score 1.71; G2 cells, % of GMNN control 15; inactive.
For FABP3 #3, the entry reads G2 robust z-score -0.347; G2 cells, % of GMNN control 0.528; inactive.
Against ETV6 #1 the deposit lists G2 robust z-score -0.118; G2 cells, % of GMNN control 2.14; inactive.
ETV6 #2 gave G2 robust z-score -0.421; G2 cells, % of GMNN control 0.00464; inactive.
ETV6 #3 showed G2 robust z-score -0.983; G2 cells, % of GMNN control -3.95; inactive.
